Laboratory results: PubChem BioAssay AID1159578 (Peter MacCallum Cancer Centre, 2015)
Shown is one part, drawn at random, of about 18,000 reagents tested. Over the whole deposit, about 1,030 (5.7%) got an active call. 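Inactive calls also include pools with fewer than 3300 nuclei, whose migration was not assessed.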 Raw values vary from plate to plate and are shown uncorrected. Unmarked entries are inactive. Further read-outs or replicates are left out here.

Aim: 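Genome-wide hunt for genes controlling movement of lymphatic endothelial cells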 (primary screen)
Cells: human lymphatic endothelial cells
Knock-down reagent: siRNA pool against human genes, 40 nM
Timing: 48 h after transfection
Read-out: 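Cells stained with dye and imaged after a scratch; covered wound area and nuclei counted, duplicates averaged, migration set against mock wells and turned into a robust z-score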
Scale: migration robust z-score: higher = faster migration into the scratch; nuclei per well: higher = more cells in the well
Rule for the call: 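Migration changed when robust z exceeds 2 or falls below -2 and mean nuclei number is at least 3300; otherwise not called changed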
Meaning of the calls: active = migration changed; inactive = no migration change, or too few cells

With PSEN2 (presenilin 2), what was measured?
migration robust z-score: -2.33 (active); nuclei per well, duplicate mean: 4600

For EFCAB3 (EF-hand calcium binding domain 3), what was measured?
migration robust z-score: -0.19; nuclei per well, duplicate mean: 6036

What is on record for IPMK (inositol polyphosphate multikinase)?
migration robust z-score: 0.78; nuclei per well, duplicate mean: 5100

With AQP8 (aquaporin 8), what was measured?
migration robust z-score: 1.01; nuclei per well, duplicate mean: 4914

What is on record for TNMD (tenomodulin)?
migration robust z-score: 0.72; nuclei per well, duplicate mean: 5318

What did the screen give for FER (FER tyrosine kinase)?
migration robust z-score: -1.66; nuclei per well, duplicate mean: 5552

What is on record for CCT6B (chaperonin containing TCP1 subunit 6B)?
migration robust z-score: 2.46 (active); nuclei per well, duplicate mean: 5868

For ZACN (zinc activated ion channel), what was measured?
migration robust z-score: 0.44; nuclei per well, duplicate mean: 6256

With SGCD (sarcoglycan delta), what was measured?
migration robust z-score: -1.32; nuclei per well, duplicate mean: 6136

With FADS6 (fatty acid desaturase 6), what was measured?
migration robust z-score: -0.21; nuclei per well, duplicate mean: 6314

What did the screen give for ZNF556 (zinc finger protein 556)?
migration robust z-score: 0.67; nuclei per well, duplicate mean: 6320

For NTAQ1 (N-terminal glutamine amidase 1), what was measured?
migration robust z-score: -0.64; nuclei per well, duplicate mean: 6762

With MAP2K5 (mitogen-activated protein kinase kinase 5), what was measured?
migration robust z-score: 0.52; nuclei per well, duplicate mean: 5672

What is on record for NKAPD1 (NKAP domain containing 1)?
migration robust z-score: 1.56; nuclei per well, duplicate mean: 5956

How did the screen score LRP8 (LDL receptor related protein 8)?
migration robust z-score: 0.38; nuclei per well, duplicate mean: 4466

What did the screen give for UGT1A3 (UDP glucuronosyltransferase family 1 member A3)?
migration robust z-score: -0.68; nuclei per well, duplicate mean: 5620

For LSM11 (LSM11, U7 small nuclear RNA associated), what does the deposit list?
migration robust z-score: 0.88; nuclei per well, duplicate mean: 5688

For CRYBA1 (crystallin beta A1), what was measured?
migration robust z-score: 0.28; nuclei per well, duplicate mean: 6444

With TMEM184C (transmembrane protein 184C), what does the deposit list?
migration robust z-score: -0.3; nuclei per well, duplicate mean: 5527

Which result is listed for HTR2B (5-hydroxytryptamine receptor 2B)?
migration robust z-score: 0.57; nuclei per well, duplicate mean: 5612

For CLEC2D (C-type lectin domain family 2 member D), how do the results read?
migration robust z-score: 0.32; nuclei per well, duplicate mean: 6015

Part of the list above, reformatted.
{"gene symbol": "NTAQ1 (N-terminal glutamine amidase 1)", "migration robust z-score": -0.64, "nuclei per well, duplicate mean": 6762}
{"gene symbol": "MAP2K5 (mitogen-activated protein kinase kinase 5)", "migration robust z-score": 0.52, "nuclei per well, duplicate mean": 5672}
